Assay results from patent US20120328612A1.
No constants are given. Whether binding was seen depends on the method and setting. Some binding calls cover weakened binding; strength is not graded here.

By UniProt entry, the sequences of proteins in these tests, tags left out. Residues count along the entry.
UniProt P49771, residues 27-181: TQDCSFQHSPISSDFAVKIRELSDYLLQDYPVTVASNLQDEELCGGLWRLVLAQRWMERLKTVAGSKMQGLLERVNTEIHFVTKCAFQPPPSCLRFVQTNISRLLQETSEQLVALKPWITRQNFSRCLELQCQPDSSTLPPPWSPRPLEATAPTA

Target: T1, human receptor tyrosine kinase FLT3 (human) (UniProt P36888)
T1 sequence: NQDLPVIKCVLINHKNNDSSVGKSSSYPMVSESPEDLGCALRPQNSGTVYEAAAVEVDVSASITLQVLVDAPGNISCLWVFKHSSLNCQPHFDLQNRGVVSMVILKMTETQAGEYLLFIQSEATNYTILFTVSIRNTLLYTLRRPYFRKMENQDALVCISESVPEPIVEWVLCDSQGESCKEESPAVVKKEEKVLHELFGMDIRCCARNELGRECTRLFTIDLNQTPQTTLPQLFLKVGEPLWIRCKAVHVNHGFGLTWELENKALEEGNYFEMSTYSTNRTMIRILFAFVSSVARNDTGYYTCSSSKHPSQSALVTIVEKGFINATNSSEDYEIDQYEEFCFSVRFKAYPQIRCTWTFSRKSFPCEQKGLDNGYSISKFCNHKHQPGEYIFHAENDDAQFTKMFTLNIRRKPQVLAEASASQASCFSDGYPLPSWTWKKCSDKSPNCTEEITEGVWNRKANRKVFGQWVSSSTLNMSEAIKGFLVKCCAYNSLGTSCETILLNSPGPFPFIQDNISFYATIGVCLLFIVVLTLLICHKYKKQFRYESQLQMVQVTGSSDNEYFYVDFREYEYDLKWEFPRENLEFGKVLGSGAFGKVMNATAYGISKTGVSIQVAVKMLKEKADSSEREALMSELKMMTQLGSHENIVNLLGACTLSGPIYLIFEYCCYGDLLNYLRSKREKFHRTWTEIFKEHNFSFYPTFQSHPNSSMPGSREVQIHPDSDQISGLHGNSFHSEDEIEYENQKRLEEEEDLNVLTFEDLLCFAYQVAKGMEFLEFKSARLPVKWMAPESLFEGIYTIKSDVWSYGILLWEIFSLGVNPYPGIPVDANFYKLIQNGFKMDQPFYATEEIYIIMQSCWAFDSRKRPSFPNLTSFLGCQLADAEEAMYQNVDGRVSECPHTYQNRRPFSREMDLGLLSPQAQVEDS
Assay: competition, flow cytometry on NALM16 cells; rFLT3L varied, antibody (competitor 4G8SDIEM or BV10SDIEM) at 1 µg/ml

binding: binds
Substance: recombinant FLT3 ligand (from UniProt P49771 27-181)
